Reference: ChEMBL document CHEMBL3763113, “Discovery of spirocyclic proline tryptophan hydroxylase-1 inhibitors” (Bioorg Med Chem Lett, 2016)

Assays:
[1] = Oral bioavailability in rat at 25 mg/kg; format: ADME, organism-based; details: in vivo
[2] = test system: Rattus norvegicus; test: Decrease in 5-HT levels in rat intestinal mucosa at 100 mg/kg, po bid measured after 16 hrs relative to control; format: functional; design: scale not given: the % may be the effect or the level left
[3] = Half life in rat at 1 mg/kg, iv; format: ADME, organism-based; details: in vivo
[4] = test system: Rattus norvegicus; test: Decrease in 5-HT levels in rat platelet rich plasma at 100 mg/kg, po bid measured after 16 hrs relative to control; format: functional; design: scale not given: the % may be the effect or the level left
[5] = test system: Mus musculus; test: Decrease in 5-HT levels in mouse gut mucosa at 150 mg/kg, po administered as single dose for 16 hrs; details: read-out: INH
[6] = AUC(0 to last) in rat at 25 mg/kg, po; format: ADME, organism-based; design: dose 25 mg/kg, time 0 - last, route oral; details: in vivo
[7] = Clearance in rat at 25 mg/kg, po and 1 mg/kg, iv; format: ADME, organism-based; details: in vivo
[8] = Cmax in rat at 25 mg/kg, po; format: ADME, organism-based; design: dose 25 mg/kg, route oral; details: in vivo
[9] = Volume of distribution at steady state in rat at 1 mg/kg, iv; format: ADME, organism-based; details: in vivo, read-out: Vdss

bioavailability [1]: < 1%
half-life [3]: 2.6 h
AUC(0-t) [6]: 158 ng·h/mL
clearance [7]: 11.5 mL/min/kg
Cmax [8]: 29 ng/mL
Vd [9]: 0.56 L/kg
SMILES: Cc1ccn(-c2cc(Cl)ccc2[C@@H](Oc2cc(N3CCC4(CC3)CN[C@H](C(=O)O)C4)nc(N)n2)C(F)(F)F)n1
Activity [2]: 57%
Activity [4]: 70%
inhibition in vivo at 150 mg/kg [5]: 28%
